Measured values: patent US11938098B2, “Method for killing HIV-infected cells using Bcl-2 inhibitors” (Mayo Foundation for Medical Education and Research, priority 2015, dated 2024)
At least one compound was matched to its structure with a doubt left.

How the values were obtained:
[1] = test system: Jurkat T cells; experiment: TUNEL cell death in Jurkat T cells transfected with EGFP-Casp8p41, vector control or no DNA; format: cell-based
Experimental: HEK 293T cells were transfected using Lipofectamine (Invitrogen, Carlsbad, Calif.) according to manufacturer's protocol. Jurkat cells were transfected using a square wave electroporator (BXT, San Diego, Calif.) at 320 V. Immunophenotyping of T cell subsets was performed using multicolor flow cytometry with monoclonal antibodies to human CD3 (Alexa700, BD Pharmingen), CD4 (FITC, BD Pharmingen), CD8 (Pacific Blue, BD Pharmingen), CD27 (PE, BD Pharmingen), and CD45RO (ECD, Beckman Coulter). Central memory T cells (TCM) were defined as CD3^+CD4^+CD27^+CD45RO^+, and effector memory T cells (TEM) were defined as CD3^+CD4^+CD27^−CD45RO^+/− (Brenchley et al., J. Exp. Med., 200:749-759 (2004)). Intracellular expression of Casp8p41 was assessed as described elsewhere (Cummins et al., AIDS Res. Hum. Retroviruses, 30:476-479 (2014)). Cell death was measured using LIVE/DEAD® Fixable Aqua dead cell stain (Invitrogen) or TUNEL (Roche) according to manufacturers' protocols. Cell proliferation was measured using a CellTrace™ CFSE Cell Proliferation Kit (Life Technologies) according to manufacturer's protocol. FACS analysis was performed on either a FACScan or LSRII flow cytometer (BD Biosciences) based on multiparameter needs. FACS data were analyzed using FlowJo software (Tree Star Inc).

[2] = test system: HIV-1IIIb; experiment: Acute HIVIIIb infection of primary CD4 T cells in vitro (viability, p24, cell associated HIV DNA); format: cell-based
From the text: Jurkat cells and HEK 293T cells were obtained from American Type Culture Collection (Manassas, Va.). Jurkat/Bcl-2 cells were created by transfecting Jurkat with a pcDNA-3 encoding Bcl-2 (obtained from Dr. Stan Korsmeyer), selecting for 30 days, and assessing Bcl-2 expression by immunoblotting. HIV-uninfected PBMCs were harvested by ficoll gradient centrifugation from Leukocyte Reduction System apheresis chambers provided by healthy volunteer blood donors. Primary bulk CD4 T cells were isolated using RosetteSep™ Human CD4^+ T Cell Enrichment Cocktail (StemCell Technologies), activated for 24 hours with 1 μg/mL phytohemagglutinin, washed in medium, and incubated for 48 hours with 50 units/mL IL-2 prior to HIV infection. TCM and TEM were treated with CH-11 anti-Fas antibody (1 μg/mL), cycloheximide (CHX, 30 μM), etoposide (20 μM), camptothecin (20 μM), carbonyl cyanide 3-chlorophenyl-hydrazone (CCCP, 1 μM), or H2O2 (0.35 mM) overnight to induce cell death.
Immunophenotyping of T cell subsets was performed using multicolor flow cytometry with monoclonal antibodies to human CD3 (Alexa700, BD Pharmingen), CD4 (FITC, BD Pharmingen), CD8 (Pacific Blue, BD Pharmingen), CD27 (PE, BD Pharmingen), and CD45RO (ECD, Beckman Coulter). […] Intracellular expression of Casp8p41 was assessed as described elsewhere (Cummins et al., AIDS Res. Hum. Retroviruses, 30:476-479 (2014)). Cell death was measured using LIVE/DEAD® Fixable Aqua dead cell stain (Invitrogen) or TUNEL (Roche) according to manufacturers' protocols. Cell proliferation was measured using a CellTrace™ CFSE Cell Proliferation Kit (Life Technologies) according to manufacturer's protocol. […] FACS data were analyzed using FlowJo software (Tree Star Inc).
Jurkat and Jurkat/Bcl-2 cells were infected overnight, while primary PHA-activated CD4 T cells were infected for 6 hours with HIV-1IIIb (NIH AIDS Reagent Program). […] At the indicated time points, HIV-1 p24 in the cell culture supernatant was measured by RETROTEK™ ELISA kits (Zeptometrix Corporation) according to manufacturer's protocol. […]

## CC1(C)CCC(CN2CCN(c3ccc(C(=O)NS(=O)(=O)c4ccc(NCC5CCOCC5)c([N+](=O)[O-])c4)c(Oc4cnc5[nH]ccc5c4)c3)CC2)=C(c2ccc(Cl)cc2)C1 [venetoclax]
[1]; Jurkat T cells, not with control vector
  killing by EGFP-Casp8p41: increased killing
[1]; parental Jurkat cells transfected with no DNA or expressing eGFP, up to 1 μM
  apoptosis compared to diluent control: did not result in increased apoptosis
[2]; day 9 post infection
  cell associated HIV-1 DNA compared to vehicle control: decreased
  supernatant HIV p24 levels: reduced
[2]; primary CD4 T cells
  survival of CD4 T cells following acute HIVIIIb infection: decreased survival
